According to patent US20140094451A1, “PREVENTIVE OR REMEDY FOR GLAUCOMA” (Kowa Co., Ltd., priority 2005, published 2014):
At least one structure is not confirmed: it was looked up by name or label, or the drawing left a doubt.

Test system: Japanese white rabbits
Experiment: Ocular hypotensive effect (IOP change from initial IOP) after instillation, alone or in combination
Type: in vivo
Settings: FIG. 1; single drug treatment groups; instillation 50 μL, male JW rabbits
Description: To examine usefulness of combination use of a Rho kinase inhibitor and an α1 blocker, the ocular hypotensive effects were compared by administering either of these drugs alone or both in combination to laboratory animals. (S)-(−)-1-(4-fluoro-5-isoquinolinesulfonyl)-2-methyl-1,4-homopiperazine-hydrochloride dihydrate was dissolved in physiological saline, and the solution was neutralized (pH 6.0) by adding sodium dihydrogenphosphate and sodium hydroxide to prepare a (S)-(−)-1-(4-fluoro-5-isoquinolinesulfonyl)-2-methyl-1,4-homopiperazine solution at a desired concentration. The commercially available “Eril® S Injection” (Asahi Kasei Pharma) was used as it was. The commercially available “Detantol 0.01% Ophthalmic Solution” (Santen Pharmaceutical Co., Ltd.) was used as it was. The ocular hypotensive effect was examined after the combination use of (S)-(−)-1-(4-fluoro-5-isoquinolinesulfonyl)-2-methyl-1,4-homopiperazine and bunazosin. As a control, the ocular hypotensive effect was also examined after the use of bunazosin alone or (S)-(−)-1-(4-fluoro-5-isoquinolinesulfonyl)-2-methyl-1,4-homopiperazine alone. Similarly, the ocular hypotensive effect was examined after the combination use of hexahydro-1-(5-isoquinolinesulfonyl)-1H-1,4-diazepine and bunazosin. […]

Structure (SMILES): C[C@H]1CNCCCN1S(=O)(=O)c1cccc2cncc(F)c12 [(S)-(−)-1-(4-fluoro-5-isoquinolinesulfonyl)-2-methyl-1,4-homopiperazine]
- time after instillation when the ocular hypotensive effect disappeared: 3 or 4 hours
